Taken from: PubChem BioAssay AID602196 (INSERM, 2012)

Aim: 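Knock-downs that protect lung cancer cells from cisplatin or sensitise them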
Cells: human A549 lung cancer cells
Reagents: siRNA pair against human genes
Timing: 48 h transfection before cisplatin; time from cisplatin to read-out not stated
Treatment: cisplatin at a dose killing half of control-siRNA cells; exact dose and duration not given
Measured: 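Cisplatin cell death as a shift from the 50% death seen with control siRNA; siRNAs toxic or growth-blocking alone scored 0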
Reading the numbers: two-siRNA summed score (-2 to +2): higher = both siRNAs protect from cisplatin killing; -2 means both sensitise
Rule for the call: 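siRNAs harmful alone (LDH or WST-1) get 0; others get +1 for less and -1 for more cisplatin killing; genes are active when the two siRNAs give the same sign, summing to ±2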
Meaning of the calls: active = both siRNAs shift cisplatin killing the same way; inactive = no consistent shift, or siRNA harmful alone
The deposit covers about 23,000 reagents; this is a part drawn at random. 455 of them (2%) count as active. 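Active includes both protection and sensitisation; some change values fall well beyond the stated -50 to +50 range.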 Not all columns of the deposit are shown. Reagent sequences are not shown. Not stated in the record: the amount of reagent.

target	two-siRNA summed score (-2 to +2)	Call
ISCU	0	inactive
SLC6A3	0	inactive
LOC440493	1	inactive
FLJ36749	1	inactive
SLC25A34	1	inactive
LOC387901	0	inactive
MRPL14	1	inactive
TUB	0	inactive
ZNF514	0	inactive
KCNH6	0	inactive
TPD52L2	0	inactive
LOC389393	1	inactive
CYBB	-1	inactive
BRK1	0	inactive
CDK8	0	inactive
ZNF143	0	inactive
PSD4	0	inactive
CAPZA2	0	inactive
ADNP2	1	inactive
HMX1	1	inactive
RAB33B	0	inactive
VN1R5	0	inactive
NKX2-8	0	inactive
LOC255519	0	inactive
TRIML2	0	inactive
ZRANB3	1	inactive
LOC162835	0	inactive
RPL30	0	inactive
LOC343702	0	inactive
LOC388563	0	inactive
LOC440701	1	inactive
PYGB	1	inactive
CCR7	-1	inactive
SLC15A1	0	inactive
C21orf91	0	inactive
UCK1	0	inactive
PREPL	0	inactive
METRN	0	inactive
ACOXL	0	inactive
